Results from doi:10.1101/2025.11.18.689169v1 (bioRxiv, 2025).

System: plasma components
Experiment: FPLC overall area under the curve in human plasma
Type: binding
Conditions: 100 µM in 10% human plasma, absorbance 700 nm; for overall area under the curve (AUC) of FPLC plots: 37°C 30 min

Compound | overall FPLC AUC, fold lower than that of C12 [fold] | overall area under the curve (AUC) of FPLC plots | FPLC AUC value, fold lower than C16 [fold]
CC1(C)C(/C=C/C=C/C=C/C=C2\N(CCCCS(=O)(=O)O)c3ccc4ccccc4c3C2(C)C)=[N+](CCCCS(=O)(=O)[O-])c2ccc3ccccc3c21 [ICG, indocyanine green, reference compound] | 18.5 |  | 
GGGHGDCDD [C12] |  | 198.0 ± 27.6 | 
GGGHGDCDD [C16] |  | 368.1 ± 78.7 | 
GGGHGDCDD [C18] |  | 242.4 ± 10.8 | 1.5
